# Experimental data taken from US10208029B2, “Photoacid compositions having extended lifetime of proton dissociation state” (University of Central Florida Research Foundation, Inc., priority 2013, dated 2019).
# Experiment: Photo-catalysed Fisher esterification of acetic acid in ethanol, ethyl acetate analysed by HPLC
# Conditions: for yield of ethyl acetate: acetic acid […], photoacid 3.1 mM in ethanol, irradiated at 419 and 570 nm
smiles,measurement,setting,value
CC1(C)C(/C=C/c2ccccc2O)=[N+](CCCS(=O)(=O)[O-])c2ccccc21 [photoacid 1],yield of ethyl acetate,1 hr,33%
same,yield of ethyl acetate,2 hr,50%
same,yield of ethyl acetate,3 hr,66%
same,esterification reaction in the dark,mixture kept in the dark,No reaction was detected
